According to PubChem BioAssay AID2685 (National Center for Advancing Translational Sciences (NCATS), 2010):
“And” between values parts separate entries of the source, which are not always exact repeats. Equal entries are not always repeated. This is one part of the list. Further columns of the screen follow, without active or inactive calls. Compounds called inactive in the main read-out are mostly missing here. The note in brackets gives the kind of curve behind each potency; many fits are weak.

Test: qHTS Assay for Lipid Storage Modulators in Drosophila S3 Cells;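 as to cell number change: cells counted by Cell Tracker Red CMTPX staining in the red channel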
Conditions: BODIPY lipid droplet fluorescence, 18-24 h; for cell number change: measured here: cell count max response, cells fed with added oleic acid
In short: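 Laser-scanning cytometry quantifies lipid droplet accumulation (500–530 nm total intensity; droplet/cell object ratio) in oleic acid-fed (400 uM added) Drosophila S3 cells treated with a concentration series. 20 uM Triacsin C defined 100% inhibition.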

[1] = measured here: lipid fluorescence (Fed channel) AC50, cells fed with added oleic acid
[2] = measured here: cell number channel AC50, cells fed with added oleic acid

Row | SMILES | cell number change | AC50 [1] | AC50 [2]
1 | COc1ccc(C(=O)CN2C(=O)NC(C)(c3ccccc3)C2=O)cc1OC (configuration not stated) | -8.89% | 6.51 µM [falling, single point] | –
2 | Cc1ccccc1-c1nnc(CN2CCN(C(=O)c3ccco3)CC2)o1 | 44.4% | – | 29.1 µM [rising, single point]
3 | COc1ccccc1N1CCN(CCCCNC(=O)c2ccc3ccccc3c2)CC1 | 21.5% | 29.1 µM [rising, single point] | –
4 | O=c1cc(CSc2nnnn2-c2ccc(O)cc2)nc2sccn12 | 27.2% | 6.51 µM [rising, single point] | –
5 | O=S(=O)(c1ccc(SCc2ccc(Cl)cc2)nc1)N1CCCC1 | -7.39% | 6.51 µM [rising, single point] | –
6 | COC(=O)Nc1nc(-c2ccccc2)c(C(=O)c2ccccc2)s1 | 6.56% | – | –
7 | O=C(NCC1CCOCC1)c1cc(COc2ccc(F)cc2F)on1 | 64% | 0.517 µM [rising, full curve] | 13 µM [rising, partial curve]
8 | CCn1c(SCC(=O)c2ccc(Cl)cc2)nnc1-c1cccs1 | 61.4% | 3.66 µM [rising, single point] | 3.66 µM [rising, partial curve]
9 | C=CCN(C(=O)CNC(=O)c1ccco1)C(C(=O)NC1CCCCC1)c1cccnc1 (configuration not stated) | -0.901% | 29.1 µM [rising, single point] | –
10 | O=C(OCn1nnc2ccccc2c1=O)C12CC3CC(CC(O)(C3)C1)C2 | 15.1% | – | –
11 | O=c1[nH]c(/C=C/c2ccccc2Cl)nc2ccccc12 | 15.4% | 7.31 µM [rising, partial curve, poor fit] | –
12 | Nc1nc(N)nc(-c2cccc(Cl)c2)n1 | 9.25% | 0.00461 µM [rising, full curve, poor fit] | –
13 | O=C(CNc1ccccc1)NNC1=NCCC1 | -13.8% | 0.517 µM [falling, full curve, poor fit] | –
14 | O=C(O)/C=C\c1cccc(-n2cnnn2)c1 | -7.23% | 18.4 µM [falling, single point] | –
15 | CCOc1ccc(NCc2cccn2-c2nnc(N3CCC(C(=O)NCCCN4CCCCC4CC)CC3)s2)cc1 (configuration not stated) | 10.1% | 7.31 µM [rising, partial curve] | –
16 | COc1cccc(-c2cc(C(=O)N3CCN(C(=O)c4ccco4)CC3)[nH]n2)c1 | 3.07% | – | –
17 | Cc1c(NC(=S)NC(=O)c2ccco2)cccc1-c1nc2ncccc2o1 | 6.37% | 0.116 µM [falling, full curve, poor fit] | –
18 | Cc1nn(-c2ccccc2)c(Cl)c1C(=O)NCC1CCCO1 (configuration not stated) | 21.7% | 11.6 µM [rising, partial curve, poor fit] | 6.51 µM [falling, single point]
19 | O=C(OC1CSc2nc3ccccc3n2C1)c1ccco1 (configuration not stated) | -4.2% | – | –
20 | Cn1c(SCC(=O)N/N=C/c2cccnc2)nnc1-c1ccccc1 | 22.2% | 2.31 µM [rising, full curve] | –

Row | SMILES | cell number change | AC50 [1] | AC50 [2]
21 | Cc1ccc(-n2nnc3c(=O)n(Cc4ccccc4C)cnc32)cc1 | -20.6% | 2.06 µM [rising, partial curve, poor fit] | 1.84 µM [rising, partial curve]
22 | CCC(=O)NC(c1ccco1)c1cc(Br)c2cccnc2c1O (configuration not stated) | 16.8% | 29.1 µM [rising, single point] | –
23 | C=CCOc1ccccc1CN1CCC(Oc2ccc(C(=O)N3CCCC3)cc2)CC1 | -7.95% | 16.4 µM [rising, partial curve] | –
24 | O=C(CN(c1ccc(Cl)cc1)S(=O)(=O)c1ccc(Cl)c([N+](=O)[O-])c1)NCCc1ccc(F)cc1 | -12.5% | 0.731 µM [falling, full curve] | 0.651 µM [falling, full curve, poor fit]
25 | O=C(O)CSc1nnc(-c2ccncc2)n1C1CCCCC1 | -20.7% | 3.66 µM [falling, partial curve, poor fit] | –
26 | O=C(Cn1cnc2c(nnn2-c2ccccc2)c1=O)NCC1CCCO1 (configuration not stated) | -14.5% | 29.1 µM [falling, single point] | –
27 | CC1=C(C(N)=O)C(c2cccnc2)n2nc(-c3cccc(Cl)c3)nc2N1 (configuration not stated) | -14.4% | 1.3 µM [falling, full curve, poor fit] | –
28 | Fc1cccc(-c2cc3nc4c(c(N5CCC6(CC5)OCCO6)n3n2)CCCC4)c1 | 6.75% | 2.06 µM [rising, partial curve] | –
29 | COc1ccc(Cc2nc3ccc(C(=O)NCc4cc(C)no4)cc3o2)cc1 | 24.8% | 11.6 µM [rising, partial curve] | –
30 | Cc1cccc(Nc2nc(-c3ccc(O)cc3O)cs2)n1 | -33.1% | 6.51 µM [falling, partial curve, poor fit] | 2.59 µM [falling, full curve, poor fit]
31 | CCC(=O)C1=C(O)C(c2cccc(Oc3ccccc3)c2)CCC1=O (configuration not stated) | -15.3% | 6.51 µM [falling, single point] | –
32 | Cc1ccc(C(C(=O)NC2CCCC2)N(Cc2ccco2)C(=O)CCC(=O)Nc2ccccn2)cc1 (configuration not stated) | -17.4% | – | –
33 | Cc1ccc(C(=O)CCS(=O)(=O)c2ccc(F)cc2)cc1 | 32.4% | 22.4 µM [falling, partial curve, poor fit] | –
34 | Cc1cc(C)cc(Cn2ncc(Cl)c(Cl)c2=O)c1 | – | 0.58 µM [rising, single point] | –
35 | Cc1cc(C)c(NC(=O)CNC(=O)c2ccc(-n3cncn3)c([N+](=O)[O-])c2)c(C)c1 | 33.7% | – | –
36 | Cc1cnc(C(=O)OCc2ccc(C#N)cc2)cn1 | 25.8% | 0.517 µM [rising, single point] | –
37 | CN1C2CC(OC(=O)C(CO)c3ccccc3)CC1C1OC12 (configuration not stated) | 6.84% and -72.2% | 29.1 µM [rising, single point] and 23.1 µM [rising, single point] | 4.11 µM [falling, full curve]
38 | COc1ccc(CN2CCC(=O)N(CCO)CC2)cc1OC | 12.6% | – | –
39 | O=C(NCC1CCCO1)c1cc(-c2ccncc2)nc2ccccc12 (configuration not stated) | -7.48% | 0.13 µM [falling, full curve, poor fit] | –

Arranged by number of heavy atoms (high to low): part of the list above.
Row | SMILES | cell number change | AC50 [1] | AC50 [2]
3 | COc1ccccc1N1CCN(CCCCNC(=O)c2ccc3ccccc3c2)CC1 | 21.5% | 29.1 µM [rising, single point] | –
28 | Fc1cccc(-c2cc3nc4c(c(N5CCC6(CC5)OCCO6)n3n2)CCCC4)c1 | 6.75% | 2.06 µM [rising, partial curve] | –
20 | Cn1c(SCC(=O)N/N=C/c2cccnc2)nnc1-c1ccccc1 | 22.2% | 2.31 µM [rising, full curve] | –
